Test results taken from ChEMBL document CHEMBL3091376, “Design, synthesis and in vitro anticancer evaluation of 4,6-diamino-1,3,5-triazine-2-carbohydrazides and -carboxamides” (Bioorg Med Chem Lett, 2013).
Where a name gives a salt, the structure may show the parent alone.

Test system: MDA-MB-231
Assay: Growth inhibition of human MDA-MB-231 cells after 72 hrs by CellTiter-Blue assay
Assay type: functional, cell-based
Settings: MDA-MB-231, 72 h
How it was run: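 CellTiter-Blue viability assay after 72 h exposure to test compound. IC50 (μM) reported as the mean of triplicates with standard deviation. Some values are approximate owing to low solubility in medium.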

IC50: 0.39 µM
SMILES: COc1cccc2c1C(=O)c1c(O)c3c(c(O)c1C2=O)C[C@@](O)(C(=O)CO)C[C@@H]3O[C@H]1C[C@H](N)[C@H](O)[C@H](C)O1 [DOXORUBICIN HYDROCHLORIDE]
